Laboratory results: article PMC5290284, “Portal protein functions akin to a DNA-sensor that couples genome-packaging to icosahedral capsid maturation” (Nature Communications, 2017)
Results are given in words; binding and its absence hold for the method and conditions named.

Chains of the proteins cited; added tags and fusions are not shown. Residues count along the entry.
UniProt P26744, residues 602-725: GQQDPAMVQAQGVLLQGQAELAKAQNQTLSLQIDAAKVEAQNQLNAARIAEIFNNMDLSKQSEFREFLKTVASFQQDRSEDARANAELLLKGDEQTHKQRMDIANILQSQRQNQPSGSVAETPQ

Biological target: isolated barrel domain of P22 portal protein (res. 602–725) (bacteriophage P22) (UniProt P26744)
Assay: SEC; gel filtration chromatography of the isolated barrel (res. 602–725), in the presence of tert-butanol; both purified

With “isolated barrel domain of P22 portal protein (res. 602–725) (from UniProt P26744 602-725) (domain or fragment)” the binding was “no binding”.
